# Experimental data: article doi:10.1101/2023.11.29.569073
# These are yes or no findings as the source states them, for the method shown. Binding seen in cells or lysates may run through a third protein. A result given as binding can be weak or reduced; the word gives no strength. Sequences can lack the tags named with a protein.
# Biological target: T1, CPK28-nLuc (Arabidopsis thaliana) (UniProt Q9FKW4)
# T1 sequence: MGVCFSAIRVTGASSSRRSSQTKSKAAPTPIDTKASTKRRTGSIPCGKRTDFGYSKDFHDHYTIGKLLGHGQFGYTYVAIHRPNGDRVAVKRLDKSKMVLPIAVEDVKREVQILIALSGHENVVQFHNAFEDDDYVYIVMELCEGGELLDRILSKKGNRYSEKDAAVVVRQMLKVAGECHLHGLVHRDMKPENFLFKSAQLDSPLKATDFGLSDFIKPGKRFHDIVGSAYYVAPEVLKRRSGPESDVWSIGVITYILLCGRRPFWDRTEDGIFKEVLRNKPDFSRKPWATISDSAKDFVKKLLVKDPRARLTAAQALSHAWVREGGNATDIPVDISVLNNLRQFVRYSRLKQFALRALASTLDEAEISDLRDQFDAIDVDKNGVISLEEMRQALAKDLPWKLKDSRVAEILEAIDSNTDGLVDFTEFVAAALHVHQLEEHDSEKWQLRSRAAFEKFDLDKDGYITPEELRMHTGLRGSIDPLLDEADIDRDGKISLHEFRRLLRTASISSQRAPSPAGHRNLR
# Experiment: split reporter
row,binding,Substance
1,binds,cLuc-RAF26 (Arabidopsis thaliana) (enzyme)
2,binds,cLuc-RAF39 (Arabidopsis thaliana) (enzyme)
3,binds,cLuc-MRK1 (Arabidopsis thaliana) (enzyme)
